Our source for the binding signal values is publication PMC7819943, “Rice protein-binding microarrays: a tool to detect cis-acting elements near promoter regions in rice”.

Some of the results follow.

The test addresses T1, OsSMF1 (Oryza sativa, UniProt Q6ZLB0 1-436).
T1 sequence: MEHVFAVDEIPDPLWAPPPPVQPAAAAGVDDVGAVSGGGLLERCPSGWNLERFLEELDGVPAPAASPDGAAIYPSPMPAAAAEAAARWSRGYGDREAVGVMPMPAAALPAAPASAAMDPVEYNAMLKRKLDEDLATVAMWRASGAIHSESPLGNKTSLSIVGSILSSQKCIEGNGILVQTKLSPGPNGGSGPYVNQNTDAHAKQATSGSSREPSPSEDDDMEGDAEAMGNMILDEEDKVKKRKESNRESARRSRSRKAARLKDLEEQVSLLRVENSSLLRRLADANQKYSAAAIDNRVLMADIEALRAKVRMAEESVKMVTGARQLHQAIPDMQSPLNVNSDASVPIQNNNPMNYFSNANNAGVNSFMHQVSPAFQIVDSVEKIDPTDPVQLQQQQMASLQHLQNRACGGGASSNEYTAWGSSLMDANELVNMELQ
The test can be described thus: protein-binding microarray (RPBM); PBS, 2% BSA, 51.3 ng/ul salmon testes DNA, 50 uM zinc acetate, 200 nM TF, 25 C, 1 h; high values mean tight binding. The note with it: protein: recombinant; tags: N-terminal polyhistidine and DsRed monomer fusion (pET32a); chain copies: 2; label: CyDye5-dUTP incorporated in the synthesized complementary strand; 3' TTTTT single-stranded linker to array surface; dsDNA, one strand shown. In outline:
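For the binding signal, per-feature fluorescence intensity was read in arbitrary units on an Axon 4000B scanner. Before scanning, a 2% BSA-blocked custom Agilent array made double-stranded with Cy5-dUTP was washed after 1 h at 25 °C with 200 nM protein and 50 µM zinc acetate. The proteins were Ni–NTA-purified transcription factors with N-terminal polyhistidine and DsRed fusions, expressed in E. coli BL21-CodonPlus.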
On to “CAGTAGTACATTGCTACACACGCGAGCAGACGGCTAGGCCCGGAGTCACCTAGTGCAG”, for which the binding signal is 3920 fluorescence intensity (a.u.).

As for “GAAAAGAGAACCCTATCTGCAATCGCCTCTTTGCCTCCCCCGGAGTCACCTAGTGCAG”, the binding signal is 16600 fluorescence intensity (a.u.). To “CTACGCTGCAGCTTGGTGACACTAGTGATTAACTATCTTGCGGAGTCACCTAGTGCAG” belongs 3460 fluorescence intensity (a.u.); to “CGAGTACTAGTGCGTAGTACTAGCCGTGTACCACCCACCTCGGAGTCACCTAGTGCAG”, 3330 fluorescence intensity (a.u.); to “CATATACTGGTTCAAATTCGTAGTATTTGGTTGTCTAATCCGGAGTCACCTAGTGCAG”, 3710 fluorescence intensity (a.u.).

Turning to “ATCATCCCCGTATTCCCGTGTGCCAGTCGACCAAACGCGTCGGAGTCACCTAGTGCAG”, the binding signal was 3680 fluorescence intensity (a.u.). Consider “GGTTATTTGGATGGGCTTTCCAACAAATTGGCCCACTATGCGGAGTCACCTAGTGCAG”, for which the binding signal was 3470 fluorescence intensity (a.u.). For the sequence “CGGACGCTAAGTCAATTTGGCACGTCGATGCCACGTCAGTCGGAGTCACCTAGTGCAG”, the binding signal was 15900 fluorescence intensity (a.u.). To “AACCAACGGCCCAGATCACGCCGCTGACGTGTACTCCCTCCGGAGTCACCTAGTGCAG” belongs 21100 fluorescence intensity (a.u.); to “TTAAAACCGATTCAAACACGGATGACGTATCAAAGTACCGCGGAGTCACCTAGTGCAG”, 9180 fluorescence intensity (a.u.). In the case of “TCGTCCCGGCGCTCTTCCCGCTCGCGCACGCCGACGCCGCCGGAGTCACCTAGTGCAG” it was 29200 fluorescence intensity (a.u.); in that of “TCGAACAGAACATCTCCTACATGACACGAGAGGTATTACGCGGAGTCACCTAGTGCAG”, 3510 fluorescence intensity (a.u.). To “TCCTCTTAATCCAATGCACGCGTACCAACCACGCGTGGAACGGAGTCACCTAGTGCAG” belongs 3720 fluorescence intensity (a.u.); to “TCCTAAAATGTACTAGCAACATAGTATTTAATTAGATATCCGGAGTCACCTAGTGCAG”, 3160 fluorescence intensity (a.u.); to “GCTGGTTTGATTAGATCTTCATCCCACGTGGCATTGACGTCGGAGTCACCTAGTGCAG”, 25100 fluorescence intensity (a.u.). On to “TGGTGATATCAATAGGATTGGAAGAGATTTGTCAGCCTATCGGAGTCACCTAGTGCAG”, for which the binding signal was 3450 fluorescence intensity (a.u.).

As to “CGCGCGCGGACGTAGGGATCGCCGACGCGCGCGGGTGGCACGGAGTCACCTAGTGCAG”, the binding signal was 4050 fluorescence intensity (a.u.). Regarding “ACCACACAAAGACACACGTACTTGTATACACAGCTCTCGCCGGAGTCACCTAGTGCAG”, the binding signal was 3300 fluorescence intensity (a.u.). “TGTTAGAGGTGATGGTTTGGATGCGTCACAGGTGACTTTGCGGAGTCACCTAGTGCAG”: the binding signal was 7330 fluorescence intensity (a.u.). In the case of “ATTCGCTTCGATCCAGCGTGTCACGCGGAATCCGCCCGTTCGGAGTCACCTAGTGCAG” it was 6610 fluorescence intensity (a.u.); in that of “ACAGCCTCGCGGGCCCCAGGATGCCAGGACACACGAAATCCGGAGTCACCTAGTGCAG”, 3160 fluorescence intensity (a.u.); in that of “TCTGCCCGAATGACATGGCGGATAGATTTTACAATGGATGCGGAGTCACCTAGTGCAG”, 5460 fluorescence intensity (a.u.). “TGACATGCAACAATGAGGGATGTTTCTTTAAGGGATGAAACGGAGTCACCTAGTGCAG”: the binding signal was 3330 fluorescence intensity (a.u.). Consider “CCTAACCAGTCACAGGTGACTAGTTACCTGTGACGGGTCGCGGAGTCACCTAGTGCAG”, for which the binding signal is 5480 fluorescence intensity (a.u.). To “AGACGCAGCAATCGTGACAAACACAGGATAAATCCTCACTCGGAGTCACCTAGTGCAG” belongs 3440 fluorescence intensity (a.u.); to “GCCCGGCTGGACACCGTGGCCGCGCTGGCAGACGCTGATCCGGAGTCACCTAGTGCAG”, 3650 fluorescence intensity (a.u.). “GAATTTGTTTATGCCACGTGAGCTGCCTCACACGTGTCACCGGAGTCACCTAGTGCAG”: the binding signal was 7810 fluorescence intensity (a.u.). For “CGGCCATGCCGCCTTGCGTGTGGGGATCGCACACACCTCTCGGAGTCACCTAGTGCAG”, the binding signal was 3240 fluorescence intensity (a.u.).

“ACTGCACTTATTTTGGGACGGAGTTAGTAGATTACTAGATCGGAGTCACCTAGTGCAG”: the binding signal was 3710 fluorescence intensity (a.u.). In the case of “TATTTGTATTATGTTGCAAATGTTGCAATATATATATTTACGGAGTCACCTAGTGCAG” it was 15300 fluorescence intensity (a.u.); in that of “CTGAACAGCCAGCAAAGCGTCGTTCAGCTGCGTAACATCTCGGAGTCACCTAGTGCAG”, 23000 fluorescence intensity (a.u.). With “TCAGCCTCAGCACCAGGGCTGACGCAGCGAGCAAGGCAAACGGAGTCACCTAGTGCAG”, the binding signal is 34900 fluorescence intensity (a.u.). Regarding “CCTCTCGATTCGCTGCCTCGTTGGCACCGGAAGGCGCTCTCGGAGTCACCTAGTGCAG”, the binding signal was 5120 fluorescence intensity (a.u.). Regarding “TATATATGTTTTACCTTCTAATAACCTGTTTTATAGCTAGCGGAGTCACCTAGTGCAG”, the binding signal was 8980 fluorescence intensity (a.u.).

Consider “GTGACGAAGAAAGAGGCTCCTGATTACTTTGACATAATTGCGGAGTCACCTAGTGCAG”, for which the binding signal is 3220 fluorescence intensity (a.u.). As to “GTCGTCTCCATCGACCTCCTACGTCATGTCCCGGCGCAGGCGGAGTCACCTAGTGCAG”, the binding signal was 25200 fluorescence intensity (a.u.). To “TGTACTGAGAGCGTGCAGCGGCGTACGTGGTTAGCGCTTTCGGAGTCACCTAGTGCAG” belongs 3530 fluorescence intensity (a.u.); to “AAGAAGAGGGGAAAGAGATGGTGACGTGGTCACCCTGATGCGGAGTCACCTAGTGCAG”, 16000 fluorescence intensity (a.u.). In the case of “CCCCAATTTCTATCTTCTCTCCAAAAGTGACATGGTATCACGGAGTCACCTAGTGCAG” it was 17800 fluorescence intensity (a.u.). On to “ACCGTCCATTTCCACATCGGACGGCACCCATCTCATCTGTCGGAGTCACCTAGTGCAG”, for which the binding signal was 3870 fluorescence intensity (a.u.). Turning to “ATTGTCAAATCATATAGCAATTAGGCTTAAAAGATTCGTACGGAGTCACCTAGTGCAG”, the binding signal was 18400 fluorescence intensity (a.u.). In the case of “CATCCCTCACTCGCAACCCTCTCCCACCTCTGACCGTCACCGGAGTCACCTAGTGCAG” it was 3390 fluorescence intensity (a.u.).
